The list shows a part of the results. These are further read-outs of the screen, such as a control signal, another cell line or another target. No call is given for them. Compounds called inactive in the main read-out are mostly missing here. Words in brackets tell the shape of the fitted curve; partial curves, single points and poor fits give uncertain potencies.

A short description of the test: qHTS Assay to Find Inhibitors of Chronic Active B-Cell Receptor Signaling. As to conditions: ABC-DLBCL IkBa-CBG/CBR reporter, luminescence ratio (green luciferase fused to IkBa over red control in TMD8 lymphoma cells), 4 h; measured here: CBR red luminescence, cell number. Summed up:
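TMD8 ABC-DLBCL cells carrying doxycycline-inducible green luciferase fused to IkappaBalpha plus unfused red luciferase were exposed to compounds (up to 46 uM) for 4 hrs at 37C. Activity came from the overlap-corrected green/red luminescence ratio.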
(In general: Quantitative high-throughput screening tests each substance at several concentrations.)
Consider `c1ccc(-c2oc3ncnc(NCCCN4CCOCC4)c3c2-c2ccccc2)cc1`, for which the AC50 – broadly, the concentration at which the activity in the assay is half-maximal – was 17.8 µM [falling, single point].
Then `COc1ccc(C(=O)Oc2cccc(Nc3ncnc4ccccc34)c2)cc1OC`, with 20.6 µM [falling, partial curve, poor fit].
For `Cc1sc(NC(=O)C2C3CCC(O3)C2C(=O)O)nc1-c1ccc(CC(C)C)cc1` (stereo not drawn), the AC50 was 2.59 µM [rising, full curve].
As to `C=CCSc1nnc(NC(=O)Cc2ccc(OC)c(OC)c2)s1`, the AC50 was 15.8 µM [rising, partial curve, poor fit].
On to `CCn1cc(/C=N/NS(=O)(=O)c2ccc(OC)cc2)c(C)n1`, for which the AC50 is 14.6 µM [rising, single point].
On to `COC(=O)c1ccc(/C=C2\SC(=S)N(CCCC(=O)NCCCN3CCOCC3)C2=O)cc1`, for which the AC50 is 35.5 µM [falling, partial curve, poor fit].
In the case of `COCCCNC(=O)c1c(N)n(/N=C/c2cccs2)c2nc3ccccc3nc12`, the AC50 was 11.2 µM [falling, partial curve, poor fit].
For `COc1ccc(OCc2nnc(SCC(=O)N3CCCc4ccccc43)n2-c2ccc(C)cc2)cc1` the value was 25.9 µM [falling, single point].
With `COc1ccc(/C=C2/C(=O)N=C(N)N2C)cc1OC`, the AC50 is 20.6 µM [rising, partial curve, poor fit].
As to `Cc1ccc(-c2nc(C=Nc3ccc(O)cc3)c(O)o2)cc1`, the AC50 is 35.5 µM [falling, single point].
In the case of `CCS(=O)(=O)N1CCN(c2cccc(C)c2C)CC1`, the AC50 is 22.4 µM [rising, single point].
For the compound `Cc1ccccc1NC(=O)c1ccc([N+](=O)[O-])o1`, the AC50 is 28.2 µM [falling, single point].
In the case of `CCOC(=O)c1cn(Cc2cccc(Cl)c2)c2cc(C)nn2c1=O`, the AC50 was 3.16 µM [rising, full curve, poor fit].
For `Cc1ccc(NC(=O)/C(C#N)=N/Nc2ccc(C(=O)O)cc2)c(C)c1` the value was 0.316 µM [falling, full curve].
Regarding `COc1ccc(-c2ncccc2OC(=O)C23CC4CC(CC(C4)C2)C3)cc1`, the AC50 is 16.4 µM [rising, partial curve, poor fit].
`CC(C)(C)S(=O)(=O)c1cnc(N2CCOCC2)nc1N`: the AC50 was 0.891 µM [rising, full curve, poor fit].
Consider `CCCc1ccc(S(=O)(=O)NCCc2ccncc2)cc1`, for which the AC50 was 10.3 µM [falling, single point].
Then `COc1ccc(C(=O)N/N=C(\C)CC(=O)N2CCN(C=O)CC2)cc1`, with 14.6 µM [falling, partial curve].

The record behind these values is PubChem BioAssay AID493014 (National Center for Advancing Translational Sciences (NCATS), 2011).
